Assay results published in PubChem BioAssay AID588590 (National Center for Advancing Translational Sciences (NCATS), 2011).
Out of some 390,000 compounds screened, about 4,000 (1%) were called active. This list was built around the results that the source calls inconclusive (neither active nor inactive); the mix of calls is not that of the screen. Calls follow the shape of the dose curve; as a rule, active = well fitted inhibition curve with a large enough effect; inconclusive = small, poorly fitted or top-dose-only effect, or another doubt; inactive = no such curve, though single readings can be large or run the other way. Potencies of inconclusive entries are doubtful fits and often do not repeat.

By UniProt entry, the sequences of proteins in these tests, tags left out. Where a name states a change or a piece, a line headed by the entry shows the natural chain unless it says otherwise.
UniProt Q9UNA4: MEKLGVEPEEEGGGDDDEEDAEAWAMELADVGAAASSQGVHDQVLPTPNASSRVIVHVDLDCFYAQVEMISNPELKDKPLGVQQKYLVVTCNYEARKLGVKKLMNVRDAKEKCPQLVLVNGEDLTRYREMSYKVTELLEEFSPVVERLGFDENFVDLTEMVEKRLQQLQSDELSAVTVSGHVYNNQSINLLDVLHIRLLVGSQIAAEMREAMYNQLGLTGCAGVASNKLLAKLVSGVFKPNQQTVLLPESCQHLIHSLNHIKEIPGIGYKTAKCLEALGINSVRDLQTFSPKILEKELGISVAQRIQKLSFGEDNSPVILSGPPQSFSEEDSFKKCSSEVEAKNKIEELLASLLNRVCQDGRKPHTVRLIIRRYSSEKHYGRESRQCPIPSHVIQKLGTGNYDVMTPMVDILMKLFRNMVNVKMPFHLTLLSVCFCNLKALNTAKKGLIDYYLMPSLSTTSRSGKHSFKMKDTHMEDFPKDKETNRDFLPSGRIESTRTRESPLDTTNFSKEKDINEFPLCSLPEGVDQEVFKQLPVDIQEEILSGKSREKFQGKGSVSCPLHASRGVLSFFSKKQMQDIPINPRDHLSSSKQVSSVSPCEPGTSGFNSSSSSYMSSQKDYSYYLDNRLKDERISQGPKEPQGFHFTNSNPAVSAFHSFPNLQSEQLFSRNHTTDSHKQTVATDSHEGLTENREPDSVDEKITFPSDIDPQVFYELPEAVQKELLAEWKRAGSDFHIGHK

molecular target: DNA polymerase iota (Homo sapiens) (UniProt Q9UNA4); test: qHTS for Inhibitors of Polymerase Iota; conditions: Pol iota fluorescent replication assay, 10 min; series mostly up to 115 µM; activity, negative = inhibition: at the top concentration
In short: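 Fluorescent replication assay read twice, at 0 min and 10 min after adding 50 nM (final) substrate. Enzyme (10 nM) and compounds were first incubated 15 min at room temperature; enzyme-free buffer wells were negative controls.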
Potency is read from the fitted curve at half-maximal effect.

Compound	Potency	activity, negative = inhibition
CC1(C)Oc2ccc3ccc(=O)oc3c2/C(=C/NNC(N)=S)C1=O	inconclusive: 28.2 µM [inhibitor, partial curve, poor fit]	–
CCc1cccc(C)c1NC(=S)NCC(c1cccnc1)N1CCOCC1 (configuration not stated)	–	inactive: 4.63%
Cc1cc(C)cc(NC(=O)COc2cccc3c(=O)n(C)ccc23)c1	–	inactive: 19.3%
CCC(=O)N1CCc2cc(Br)cc(S(=O)(=O)NCCN3CCCC3)c21	inconclusive: 50.1 µM [inhibitor, partial curve, poor fit]	–
Cc1ccc(-c2noc(CNC(=O)c3ccc(C)c(Cl)c3)n2)cc1	–	inactive: 9.35%
CC(C)(C)CCN1CCC(CN2CCNC(=O)C2=O)CC1	inconclusive: 50.1 µM [inhibitor, partial curve, poor fit]	–
NS(=O)(=O)c1ccc(N/N=C/c2ccc(O)cc2O)c([N+](=O)[O-])c1	active: 50.1 µM	–
c1ccc2c(c1)[nH]c1c3ccccc3sc21	inconclusive: 79.4 µM [inhibitor, partial curve, poor fit]	–
CCCCOc1ccc(-c2nnn(C(C)(C)C(=O)OC)n2)cc1	inconclusive: 31.6 µM [inhibitor, partial curve, poor fit]	–
COc1ccc(-c2cnc3c(c2)CCC3(C#N)C#N)cc1	inconclusive: 79.4 µM [inhibitor, partial curve]	–
Cc1ccc(-n2c(C)cc(/C=C(\C#N)C(=O)Nc3ccc(C)c(C)c3)c2C)cc1	inconclusive: 89.1 µM [inhibitor, partial curve, poor fit]	–
Cc1cc(=O)[nH]c(N/N=C/c2ccc(-c3ccc(F)cc3)o2)n1	inconclusive: 25.1 µM [inhibitor, full curve]	–
CCCCCCCC(=O)N1c2ccccc2NC(=O)C1CC(=O)Nc1ccc(C(=O)O)cc1 (configuration not stated)	inconclusive: 79.4 µM [inhibitor, partial curve, poor fit]	–
COc1ccc(N2CCN(C(=O)CSc3ncccc3-c3nc4ccccc4[nH]3)CC2)cc1	inconclusive: 79.4 µM [inhibitor, partial curve]	–
Cc1ccc(OCC(=O)OCC(=O)NC2CC2)cc1C	–	inactive: 17.9%
O=[N+]([O-])C(=C1Nc2ccccc2N1)/C(Cl)=C(/Cl)Br	inconclusive: 15.8 µM [inhibitor, partial curve, poor fit]	–
O=C(Cn1cnc2sc(-c3ccccc3)cc2c1=O)NCc1ccco1	active: 10 µM	–
Cc1nc2c(C(=O)NCCc3ccccc3Cl)c[nH]n2c(=O)c1Cl	inconclusive: 89.1 µM [inhibitor, partial curve, poor fit]	–
Cc1ccc2oc(-c3ccc(C)c(NC(=O)/C=C/c4ccco4)c3)nc2c1	inconclusive: 50.1 µM [inhibitor, partial curve]	–
Cc1ccc2c(CC(=O)N(Cc3ccc(N(C)C)cc3)Cc3ccco3)coc2c1C	–	inactive: -5.23%
COc1cc(/C=C/C(=O)N2C(=O)c3cccc(N)c3C2=O)cc(OC)c1OC	inconclusive: 0.708 µM [inhibitor, full curve, poor fit]	–

Compound	Potency	activity, negative = inhibition
CCc1cccc(NC(=O)C2CCN(S(=O)(=O)c3ccc4c(c3)CC(C)N4C(C)=O)CC2)c1 (configuration not stated)	inconclusive: 100 µM [inhibitor, partial curve, poor fit]	–
O=C(c1ccc2ccccc2c1)N1CCN(S(=O)(=O)/C=C/c2ccccc2)CC1	–	inactive: 16.2%
COc1cccc(-c2cc(C(F)(F)F)n3ncc(C(=O)OC(C)C)c3n2)c1	–	inactive: -7.88%
O=C(O)CSc1nnc(-c2ccccc2)c(-c2ccccc2)n1	inconclusive: 28.2 µM [inhibitor, full curve, poor fit]	–
O=C(CCN1C(=O)/C(=C/C=C/c2ccccc2)SC1=S)Nc1cccnc1	inconclusive: 14.1 µM [inhibitor, partial curve, poor fit]	–
Cc1cc(N2CCC(C)CC2)nc2ccc(NC(=O)Cc3ccccc3Br)cc12	inconclusive: 89.1 µM [inhibitor, partial curve, poor fit]	–
O=S(=O)(NCCc1nnc2ccc(SCc3ccccc3Cl)nn12)c1ccccc1	–	inactive: 41%
CCCCOC(=O)c1ccc(-n2nnc3c(sc4nc(C)cc(C)c43)c2=O)cc1	–	inactive: 2.75%
CCc1nnc(SCc2ccc(OC(C)C)cc2)n1N	–	inactive: -4.29%
Cc1cc(-c2csc(N)n2)c(C)n1-c1ccccc1	inconclusive: 14.1 µM [inhibitor, full curve]	–
CCc1ccc(C2CC(=O)Nc3c2c(=O)n(C)c2ncnn32)cc1 (configuration not stated)	inconclusive: 3.16 µM [inhibitor, partial curve, poor fit]	–
COc1ccc(OC)c(NC(=O)c2nc(S(=O)(=O)Cc3ccc(F)cc3)ncc2Cl)c1	inconclusive: 56.2 µM [inhibitor, partial curve, poor fit]	–
Cc1nc(N2CCCCC2)c(C#N)c(C)c1[N+](=O)[O-]	inconclusive: 39.8 µM [inhibitor, single point]	–
O=C(CCCN1C(=O)/C(=C/c2ccco2)SC1=S)Nc1ccccc1C(=O)O	active: 22.4 µM	–
CCc1c(O)nc(SCC(=O)NCc2ccco2)[nH]c1=O	inconclusive: 25.1 µM [inhibitor, single point]	–
CCOC(=O)C1CCCN(C(=O)c2ccc3c(c2)N(C)C(=O)/C(=C/c2ccccc2Cl)S3)C1 (configuration not stated)	inconclusive: 56.2 µM [inhibitor, partial curve, poor fit]	–
O=C(CCCN1C(=O)/C(=C\c2ccco2)SC1=S)Nc1cccc2ccccc12	inconclusive: 126 µM [inhibitor, single point]	–
C#CCNC(=O)C1=C[C@@H](c2ccccc2)C[C@@H](OCCCCO)O1	–	inactive: 2.01%
COc1ccc(Nc2ccccc2C(=O)O)cc1	inconclusive: 89.1 µM [inhibitor, single point]	–
CC1=C(C#N)C(=O)NC(=O)/C1=C\c1ccc(-c2cc(C)c(C)cc2[N+](=O)[O-])o1	inconclusive: 22.4 µM [inhibitor, partial curve, poor fit]	–
COc1ccc(CNC(=O)c2ccc(Cn3c(=O)c4cccn4c4cccnc43)cc2)c(OC)c1	–	inactive: 8.55%

Of the compounds above, 4 contain a COOH group:
Compound	Potency	activity, negative = inhibition
CCCCCCCC(=O)N1c2ccccc2NC(=O)C1CC(=O)Nc1ccc(C(=O)O)cc1 (configuration not stated)	inconclusive: 79.4 µM [inhibitor, partial curve, poor fit]	–
O=C(O)CSc1nnc(-c2ccccc2)c(-c2ccccc2)n1	inconclusive: 28.2 µM [inhibitor, full curve, poor fit]	–
O=C(CCCN1C(=O)/C(=C/c2ccco2)SC1=S)Nc1ccccc1C(=O)O	active: 22.4 µM	–
COc1ccc(Nc2ccccc2C(=O)O)cc1	inconclusive: 89.1 µM [inhibitor, single point]	–
